Measurements: US12486514B2, “Method to specifically stimulate survival and expansion of genetically-modified immune cells” (National University of Singapore, priority 2018, dated 2025)

B1: EpoR: wild-type human erythropoietin receptor (SEQ ID NO: 2) expressed in T cells by MSCV retroviral transduction (protein)
chain: MDHLGASLWPQVGSLCLLLAGAAWAPPPNLPDPKFESKAALLAARGPEELLCFTERLEDLVCFWEEAASAGVGPGNYSFSYQLEDEPWKLCRLHQAPTARGAVRFWCSLPTADTSSFVPLELRVTAASGAPRYHRVIHINEVVLLDAPVGLVARLADESGHVVLRWLPPPETPMTSHIRYEVDVSAGNGAGSVQRVEILEGRTECVLSNLRGRTRYTFAVRARMAEPSFGGFWSAWSEPVSLLTPSDLDPLILTLSLILVVILVLLTVLALLSHRRALKQKIWPGIPSPESEFEGLFTTHKGNFQLWLYQNDGCLWWSPCTPFTEDPPASLEVLSERCWGTMQAVEPGTDDEGPLLEPVGSEHAQDTYLVLDKWLLPRNPPSEDLPGPGGSVDIVAMDEGSEASSCSSALASKPSPEGASAASFEYTILDPSSQLLRPWTLCPELPPTPPHLKYLYLVVSDSGISTDYSSGDSQGAQGGLSDGPYSNPYENSLIPAAEPLPPSYVACS
B2: EpoRm: truncated mutant Epo receptor, codon 439 TGG (Trp) changed to TAG (stop), SEQ ID NO: 6, expressed in T cells (protein)
chain: MDHLGASLWPQVGSLCLLLAGAAWAPPPNLPDPKFESKAALLAARGPEELLCFTERLEDLVCFWEEAASAGVGPGNYSFSYQLEDEPWKLCRLHQAPTARGAVRFWCSLPTADTSSFVPLELRVTAASGAPRYHRVIHINEVVLLDAPVGLVARLADESGHVVLRWLPPPETPMTSHIRYEVDVSAGNGAGSVQRVEILEGRTECVLSNLRGRTRYTFAVRARMAEPSFGGFWSAWSEPVSLLTPSDLDPLILTLSLILVVILVLLTVLALLSHRRALKQKIWPGIPSPESEFEGLFTTHKGNFQLWLYQNDGCLWWSPCTPFTEDPPASLEVLSERCWGTMQAVEPGTDDEGPLLEPVGSEHAQDTYLVLDKWLLPRNPPSEDLPGPGGSVDIVAMDEGSEASSCSSALASKPSPEGASAASFEYTILDPSSQLLRP

Tested on: peripheral blood T lymphocytes
Assay: Surface EpoR and GFP expression by flow cytometry in transduced T lymphocytes
Type: cell-based, human
Details: for mean fluorescence intensity (MFI) of EpoR / percentage of GFP+ T cells expressing EpoR: 18 experiments with T lymphocytes from 7 donors; for MFI of GFP / percentage of GFP+ T cells: overall GFP expression after transduction

| Molecule | percentage of transduced T lymphocytes (GFP+) expressing EpoR (5 experiments with T cells from 4 donors) | mean fluorescence intensity (MFI) of EpoR | percentage of GFP+ T cells expressing EpoR | MFI of GFP | percentage of GFP+ T cells | persistence of surface EpoR after exposure to Epo (10 IU/mL Epo, T cells from 3 donors) |
| --- | --- | --- | --- | --- | --- | --- |
| B1 | 74.9%±4.8% | 3,620±2,449 | 71.9%±14.1% | 7,003±2,820 | 75.2%±8.4% | – |
| B2 | – | 8,773±5,851 | 93.1%±6.1% | 8,331±3,343 | 80.4%±7.5% | longer persistence after exposure to Epo |
